This note sets out measurements from patent publication US11920185B2, “Method of inactivating microbes by citraconic anhydride” (Roche Molecular Systems, Inc., priority 2015, dated 2024).

In this data set the test system is lambda bacteriophage DNA. As to the kind of experiment: qPCR amplification of DNA from citraconic anhydride-treated lambda bacteriophage. Background: Real-time PCR tracks product formation cycle by cycle.

As to `CC1=CC(=O)OC1=O` [citraconic anhydride], the “Average Cp” value by setting is: (0.11 mM Cit, 50 copies/reaction) 32.36; (0.11 mM Cit, 500 copies/reaction) 28.82; (0.11 mM Cit, 5000 copies/reaction) 25.18; (1.1 mM Cit, 50 copies/reaction) 32.24; (1.1 mM Cit, 500 copies/reaction) 28.71; (1.1 mM Cit, 5000 copies/reaction) 25.25. For the same compound, the “Average Cp” value (11 mM Cit, 50 copies/reaction) was 31.19; the “Average Cp” value (11 mM Cit, 500 copies/reaction) is 27.89; the “Average Cp” value (11 mM Cit, 5000 copies/reaction) is listed as 25.30. The “Ct compared with untreated phage” value (phage treated with 11 mM Cit) is on record as “same Ct as untreated (active) phage”.
